This data set can be described thus: general procedure: Fmoc solid-phase peptide synthesis; 2-chlorotrityl chloride resin (acids); Rink amide resin (amides); TBTU/HOBt. The settings on record: whole synthesis.

HELM strings list residues between dots; [ac] is acetyl, [am] amide, other brackets name non-standard units.

Substance Ac-KTTKS-NH2 had an isolated yield of 58%.

Consider Ac-KTTKS-OH, for which the isolated yield was 55%.

For Ac-KTTRS-NH2, the isolated yield came out at 65%.

Regarding Ac-KTTRS-OH, the isolated yield turned out to be 55%.

Substance Ac-RTTKS-NH2 had an isolated yield of 54%.

Ac-RTTKS-OH: the isolated yield came out at 58%.

In turn, Ac-RTTRS-NH2 gave an isolated yield of 66%.

In turn, Ac-RTTRS-OH had an isolated yield of 63%.

The substance H-KTTKS-NH2 registered an isolated yield of 62%.

For the substance H-KTTKS-OH, the isolated yield is recorded as 57%.

Regarding H-KTTRS-NH2, the isolated yield is recorded as 63%.

The substance H-KTTRS-OH gave an isolated yield of 58%.

As to H-RTTKS-NH2, the isolated yield came out at 58%.

In turn, H-RTTKS-OH gave an isolated yield of 59%.

Regarding H-RTTRS-NH2, the isolated yield was determined as 65%.

The substance H-RTTRS-OH registered an isolated yield of 68%.

In turn, “PEPTIDE1{[XCaph438eea].K.T.T.K.S.[am]}$$$$V2.0” displayed an isolated yield of 58%.

In turn, “PEPTIDE1{[XCaph438eea].K.T.T.K.S}$$$$V2.0” displayed an isolated yield of 56%.

As for “PEPTIDE1{[XCaph438eea].K.T.T.R.S.[am]}$$$$V2.0”, the isolated yield is given as 61%.

“PEPTIDE1{[XCaph438eea].K.T.T.R.S}$$$$V2.0” registered an isolated yield of 56%.

In the case of “PEPTIDE1{[XCaph438eea].R.T.T.K.S}$$$$V2.0”, the isolated yield is reported as 58%.

On to “PEPTIDE1{[XCaph438eea].R.T.T.R.S.[am]}$$$$V2.0”, for which the isolated yield is given as 62%.

“PEPTIDE1{[XCaph438eea].R.T.T.R.S}$$$$V2.0” returned an isolated yield of 65%.

“PEPTIDE1{[XCaphdc5e81].K.T.T.K.S.[am]}$$$$V2.0”: the isolated yield was 42%.

The substance “PEPTIDE1{[XCaphdc5e81].K.T.T.K.S}$$$$V2.0” showed an isolated yield of 47%.

In turn, “PEPTIDE1{[XCaphdc5e81].K.T.T.R.S.[am]}$$$$V2.0” had an isolated yield of 54%.

Consider “PEPTIDE1{[XCaphdc5e81].K.T.T.R.S}$$$$V2.0”, for which the isolated yield came to 52%.

With “PEPTIDE1{[XCaphdc5e81].R.T.T.K.S.[am]}$$$$V2.0”, the isolated yield turned out to be 51%.

The substance “PEPTIDE1{[XCaphdc5e81].R.T.T.K.S}$$$$V2.0” registered an isolated yield of 52%.

With “PEPTIDE1{[XCaphdc5e81].R.T.T.R.S.[am]}$$$$V2.0”, the isolated yield was determined as 53%.

For the substance “PEPTIDE1{[XCaphdc5e81].R.T.T.R.S}$$$$V2.0”, the isolated yield is reported as 61%.

The substance Pal-Arg-Thr-Thr-Lys-Ser- NH2 came in with an isolated yield of 59%.

These data come from article PMC6832239 (Molecules, 2019).
